Measurements reported in PubChem BioAssay AID504784 (Drosophila RNAi Screening Center, 2011).

Assay: 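Search for regulators of lipid droplet storage in oleate-fed fly cells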 (primary screen)
Cells: Drosophila Kc167 embryonic cells
Knock-down reagent: long dsRNA against Drosophila genes, about 250 ng dsRNA per well
Duration: 4 days
Treatment: cells fed 400 µM oleic acid bound to BSA
Measurement: 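Cells imaged and segmented; ratio of lipid droplet area to nuclear area, log-transformed, then normalised as a B-score over the screen; higher means more stored lipid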
Scale: droplet/nuclear area B-score: higher = more stored lipid (overstorage)
In all, the deposit lists about 17,000 reagents; this is an unselected part of those that have a named target and a result. 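Each column is one replicate's B-score; the combined score over replicates was not deposited, so single values may mislead.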 Names joined by + are all predicted targets of the reagent. Further read-outs or replicates are left out here.

With knock-down of CG10098 [DRSC12509], the record shows droplet/nuclear area B-score, replicate 1 = 1.78.
CG1889 + CG43386 [DRSC17979] scored droplet/nuclear area B-score, replicate 1 = -0.921.
For Cad87A [DRSC16161], the entry reads droplet/nuclear area B-score, replicate 1 = -0.0807.
With knock-down of CG7222 [DRSC07019], the record shows droplet/nuclear area B-score, replicate 1 = -0.131.
After knock-down of Vps37B [DRSC12165], the screen gave droplet/nuclear area B-score, replicate 1 = 2.31.
Depletion of Snm1 [DRSC12130] resulted in: droplet/nuclear area B-score, replicate 1 = 0.265.
Against Alg11 [DRSC11647] the deposit lists droplet/nuclear area B-score, replicate 1 = 1.12.
With knock-down of ND-MNLL [DRSC18159], the record shows droplet/nuclear area B-score, replicate 1 = 0.667.
With knock-down of CG1801 [DRSC20556], the screen gave droplet/nuclear area B-score, replicate 1 = -0.13.
For Pkn + Tsen15 [DRSC21969], the entry reads droplet/nuclear area B-score, replicate 1 = -0.669.
Against Nnf1b [DRSC22080] the deposit lists droplet/nuclear area B-score, replicate 1 = -0.992.
brm [DRSC11330] showed droplet/nuclear area B-score, replicate 1 = 6.85.
Knock-down of CG42686 (retired record) [DRSC15247] came out at: droplet/nuclear area B-score, replicate 1 = 1.37.
For CG42686 (retired record) [DRSC15248], the entry reads droplet/nuclear area B-score, replicate 1 = 0.562.
Against CG42686 (retired record) [DRSC22995] the deposit lists droplet/nuclear area B-score, replicate 1 = -0.805.
Silencing of CG32708 [DRSC18411] resulted in: droplet/nuclear area B-score, replicate 1 = 0.0243.
For CG5653 [DRSC10534], the values are droplet/nuclear area B-score, replicate 1 = -1.71.
Rab26 [DRSC11837] showed droplet/nuclear area B-score, replicate 1 = 0.626.
Rab26 [DRSC11838] scored droplet/nuclear area B-score, replicate 1 = 0.112.
Silencing of Rab26 [DRSC11839] gave: droplet/nuclear area B-score, replicate 1 = -2.

3 of these entries in another layout:
| gene knocked down | amplicon | droplet/nuclear area B-score, replicate 1 |
| --- | --- | --- |
| CG10098 | DRSC12509 | 1.78 |
| CG1889 + CG43386 | DRSC17979 | -0.921 |
| Cad87A | DRSC16161 | -0.0807 |

The results go on.
With knock-down of capt [DRSC00676] the results were droplet/nuclear area B-score, replicate 1 = -0.398.
After knock-down of capt [DRSC00806], the screen gave droplet/nuclear area B-score, replicate 1 = -0.0375.
Tes [DRSC06996] gave droplet/nuclear area B-score, replicate 1 = -0.0584.
Nckx30C [DRSC02686] showed droplet/nuclear area B-score, replicate 1 = -1.54.
Nckx30C [DRSC02687] showed droplet/nuclear area B-score, replicate 1 = -0.707.
Nckx30C [DRSC02688] gave droplet/nuclear area B-score, replicate 1 = 0.111.
For Nckx30C [DRSC02689], the entry reads droplet/nuclear area B-score, replicate 1 = 2.63.
Naa30A [DRSC18583] gave droplet/nuclear area B-score, replicate 1 = 6.6.
With knock-down of Naa30A [DRSC23214], the screen gave droplet/nuclear area B-score, replicate 1 = -0.0138.
For CG7168 [DRSC16208] the deposit lists droplet/nuclear area B-score, replicate 1 = -0.269.
With knock-down of qkr54B [DRSC07670], the record shows droplet/nuclear area B-score, replicate 1 = -1.15.
Depletion of CG14062 [DRSC14725] came out at: droplet/nuclear area B-score, replicate 1 = 0.211.
For Antdh [DRSC20307] the deposit lists droplet/nuclear area B-score, replicate 1 = -1.93.
Against Arpc4 [DRSC02917], the entry reads droplet/nuclear area B-score, replicate 1 = 1.09.
Depletion of CG4839 [DRSC02783] resulted in: droplet/nuclear area B-score, replicate 1 = -0.369.
CG4839 [DRSC02784] scored droplet/nuclear area B-score, replicate 1 = 0.678.
Against nop5 [DRSC03582], the entry reads droplet/nuclear area B-score, replicate 1 = 1.15.
CG14877 [DRSC15001] scored droplet/nuclear area B-score, replicate 1 = -0.468.
For Pex7 [DRSC10651] the deposit lists droplet/nuclear area B-score, replicate 1 = -0.794.
CG31029 [DRSC15422] scored droplet/nuclear area B-score, replicate 1 = -1.93.
